Source: US8372391B2, “Biofungicidal composition for controlling phytopathogenic fungi” (priority 2009, dated 2013)
The name of at least one read-out is uncertain. Positions of bridges follow the written chain, without caps; N, C: chain ends. Non-standard residues stand in square brackets, D forms with d. Residues, ends and D or L forms follow the SMILES beside them. *: point of attachment. Ileψ(thiazoline)Cys = CC[C@H](C)[C@H](N)C1=N[C@H](C(=O)*)CS1; dOrn = NCCC[C@@H](N)C(=O)O

Test system: Serratia plymuthica CCGG2742
Assay: Susceptibility of Serratia plymuthica CCGG2742 to various antibiotics
Assay type: cell-based
Design: key: sensibility (S); resistance (R)
Details: antibiotic 10 U

**Q.** Which “Susceptibility of Serratia plymuthica CCGG2742 to antibiotic” value does the source give for `CC[C@H](C)[C@H](N)C1=N[C@H](C(=O)N[C@@H](CC(C)C)C(=O)N[C@H](CCC(=O)O)C(=O)N[C@H](C(=O)N[C@H]2CCCCNC(=O)[C@H](CC(N)=O)NC(=O)[C@@H](CC(=O)O)NC(=O)[C@H](Cc3cnc[nH]3)NC(=O)[C@@H](Cc3ccccc3)NC(=O)[C@H]([C@@H](C)CC)NC(=O)[C@@H](CCCN)NC2=O)[C@@H](C)CC)CS1` [Bacitracin] ({Ileψ(thiazoline)Cys}-L[dE]IK[dOrn]I[dF]H[dD]N; lactam 4-C) here?
**A.** The value was “R”.
